Data reported in PubChem BioAssay AID2685 (National Center for Advancing Translational Sciences (NCATS), 2010).
About 2,100 (0.66%) of roughly 320,000 compounds were called active. Inconclusive means that the source gave no clear call. Such entries were picked first, then a sample of the others. Calls come from the whole dose curve; as a rule, active = well fitted inhibition curve with a large enough effect in the signal ratio, with a control signal flat (not every such curve was filed as active); inconclusive = small, poorly fitted or top-dose-only effect, or effect the other way, or a change in a side signal; inactive = flat fitted curve, though single readings scatter; the % refers to the signal ratio. Where the call is inconclusive, the potency comes from a doubtful curve fit.

Assay: qHTS Assay for Lipid Storage Modulators in Drosophila S3 Cells
Settings: BODIPY lipid droplet fluorescence, 18-24 h, cells fed with added oleic acid; lipid storage change, negative = inhibition: at 46.1 µM (top of the series) unless noted
Method in brief: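 Laser-scanning cytometry quantifies lipid droplet accumulation (500–530 nm total intensity; droplet/cell object ratio) in oleic acid-fed (400 uM added) Drosophila S3 cells treated with a concentration series. 20 uM Triacsin C defined 100% inhibition.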
% is set by controls: 0 for no effect and ±100 for the full control effect; potency is the fitted concentration of half-maximal effect.

Row | Structure (SMILES) | lipid storage change, negative = inhibition | Potency | outcome
1 | CCCNC(=O)C(Cc1ccccc1)NC(=O)c1ccccc1 (centres undefined) | inconclusive: -44.7% |  | 
2 | O=C(CCOc1ccccc1)Nc1ccnn1C1CCN(Cc2ccccc2)CC1 |  | inconclusive: 18.4 µM [falling, single point] | 
3 | Cc1nc2ccc(NC(=O)COc3ccccc3)cc2s1 | inconclusive: -2.19% |  | 
4 | COc1ccccc1NC(=O)c1sc2ncn(Cc3ccccc3C)c(=O)c2c1C | inconclusive: 19.5% |  | 
5 | COc1ccc(N/C=C2/Sc3ccccc3NC2=O)cc1 | inconclusive: 27.9% |  | 
6 | COc1cccc(C(=O)Nc2nnc(-c3cccs3)o2)c1 | inconclusive: 52.9% |  | 
7 | COc1cnc(-c2ccccn2)nc1Sc1ccc(C)cc1 | inconclusive: -4.03% |  | 
8 | CCOC(=O)c1c(C)[nH]c(C(=O)COC(=O)CNC(=O)c2ccc(Cl)cc2Cl)c1C |  | inconclusive: 2.59 µM [falling, full curve, poor fit] | 
9 | Cc1cc(C)n(-c2nc3ccccc3nc2N2CCN(C(=O)c3ccccc3)CC2)n1 |  | inconclusive: 0.651 µM [activator, partial curve] | 
10 | O=C(Nc1cc(C(F)(F)F)ccc1N1CCOCC1)c1ccc2ccccc2n1 | inconclusive: 16.2% |  | 
11 | NC(=O)c1c(N)sc(=S)n1CC1CCCO1 (centres undefined) |  | inconclusive: 0.164 µM [activator, full curve] | 
12 | Cc1cc(C(=O)N/N=C2/CC(C)CC(C)(C)C2)c(C)o1 (centres undefined) |  | inconclusive: 0.731 µM [cytotoxic, full curve] | 
13 | Nc1nc(SCc2ccc(Cl)cc2Cl)nc2nc3c(cc12)CCCC3 | inconclusive: -51.9% |  | 
14 | NC(N)=N/N=C/c1ccc(Cl)c(Cl)c1 | inconclusive: 20.9% |  | 
15 | O=c1c2[nH]c3cccc(Cl)c3c2ncn1CC1CCCO1 (centres undefined) | inconclusive: 20.3% |  | 
16 | CCCN(CCC)CCNC(=O)c1cc2c(-c3ccccc3F)nn(C)c2s1 | inconclusive: 15.5% |  | 
17 | CCC(C)NC(=O)CC(NS(=O)(=O)c1ccc(C)cc1)c1ccc(OC)cc1 (centres undefined) | inconclusive: 4.21% |  | 
18 | Cc1ccc(S(=O)(=O)C(CNC(=O)C(C)C)c2cccs2)cc1 (centres undefined) | inconclusive: 29.1% |  | 
19 | CSC1=NCCN1C(=O)c1ccc2ccccc2c1 |  | inconclusive: 1.3 µM [rising, partial curve] | 
20 | O=c1c2cc(N3CCOCC3)ccc2[nH]c(=S)n1CCCN1CCN(c2ccccc2F)CC1 |  | inconclusive: 3.26 µM [activator, single point] | 
21 | CC(=O)NCC(=O)NC(C(=O)Nc1ccc2c(c1)OCCO2)c1ccccc1 (centres undefined) |  | inconclusive: 1.3 µM [falling, full curve, poor fit] | 
22 | CSc1cc(C)n(-c2ccccc2)c(=S)c1C(C)=O | inconclusive: -16.8% |  | 
23 | O=C(Nc1ccccc1)c1ccc(-c2ccc(F)cc2)s1 | inconclusive: -54% |  | 
24 | CCC(C(=O)Nc1cccc(OC)c1)n1nc(C)c2c(C)n(-c3ccccc3)nc2c1=O (centres undefined) |  | inconclusive: 6.51 µM [falling, single point] | 
25 | CCCCN(C(=O)CCCc1nc2ccccc2c(=O)[nH]1)c1c(N)n(CCCC)c(=O)[nH]c1=O | inconclusive: 10.1% |  | 

Quoted from the entries so far, two compounds:
Row | Structure (SMILES) | lipid storage change, negative = inhibition | Potency | outcome
6 | COc1cccc(C(=O)Nc2nnc(-c3cccs3)o2)c1 | inconclusive: 52.9% |  | 
7 | COc1cnc(-c2ccccn2)nc1Sc1ccc(C)cc1 | inconclusive: -4.03% |  | 

Later entries.

Row | Structure (SMILES) | lipid storage change, negative = inhibition | Potency | outcome
26 | COc1cccc(C2C(C(=O)c3ccc(C)o3)=C(O)C(=O)N2CCN2CCOCC2)c1 (centres undefined) |  | inconclusive: 29.1 µM [falling, single point] | 
27 | CCOc1ccccc1NC(=O)CC1Nc2ccccc2NC1=O (centres undefined) | inconclusive: -62.1% |  | 
28 | CCNC(=O)c1ccccc1-c1nc(-c2ccccc2OC)no1 | inconclusive: 37.5% |  | 
29 | CCCC(=O)NNC(=O)c1c(O)c2ccccc2[nH]c1=O |  | inconclusive: 6.51 µM [activator, single point] | 
30 | Cc1cc(C)n(/N=C/c2c[nH]c3ccccc23)c(=O)c1 | inconclusive: 5.43% |  | 
31 | CCOC(=O)/C(=N\Nc1ccc(Br)cc1)N1CC(C)OC(C)C1 (centres undefined) | inconclusive: 28.1% |  | 
32 | O=c1[nH]c(Nc2ccccc2)cc2ccccc12 |  | inconclusive: 29.1 µM [falling, single point] | 
33 | O=C(COc1ccc(Cl)cc1)NCCNc1ccc([N+](=O)[O-])cc1 | inconclusive: 15.4% |  | 
34 | Cc1cccc(N2C(S)=C(C#N)C(=O)NC2c2cccs2)c1 (centres undefined) |  | inconclusive: 18.4 µM [falling, single point] | 
35 | N/C(=N\OC(=O)CCC1CCCC1)c1ccccn1 | inconclusive: -25.4% |  | 
36 | CN(CC(=O)Nc1ccncc1)S(=O)(=O)c1ccc(Cl)cc1 | inconclusive: 17% |  | 
37 | COC(=O)c1cn(-c2ccccc2)nc1-c1ccccc1 |  | inconclusive: 2.06 µM [activator, partial curve] | 
38 | Cc1ccc(NC(=O)COC(=O)c2ccc(-n3cccn3)cc2)cc1C |  | inconclusive: 2.31 µM [activator, partial curve, poor fit] | 
39 | COc1ccc(/C=C2\SC(=S)N(CCCC(=O)N3CCN(C)CC3)C2=O)cc1 |  |  | inactive [at 46.1 µM]
40 | CCOC(=O)C1=C(C)NC(=S)NC1c1ccc(-c2ccc(Cl)cc2)o1 (centres undefined) |  | inconclusive: 4.11 µM [falling, full curve, poor fit] | 
41 | CC1=NN(c2cccc(C(=O)O)c2)C(=O)/C1=C\C=C\c1ccco1 |  | inconclusive: 13 µM [falling, partial curve] | 
42 | O=C(NCc1ccccc1Cl)c1cccc(C(F)(F)F)c1 | inactive: -6.95% |  | 
43 | CCN(CC)CCNC(=O)c1ccc(NC(=O)c2cccc(S(=O)(=O)N3CCc4ccccc43)c2)cc1 | inconclusive |  | 
44 | CSc1nnc(C(C)(C)C)c(=O)n1/N=C/c1ccccc1 | inconclusive: 6.46% |  | 
45 | COc1ccc(N2CC(C(=O)OCC(=O)Nc3cccc(C)c3)CC2=O)cc1 (centres undefined) |  | inconclusive: 29.1 µM [falling, single point] | 
46 | CCNC(=O)CP(=O)(c1ccccc1)c1ccccc1 |  | inconclusive: 0.82 µM [falling, full curve, poor fit] | 
47 | Cc1cccc(-c2noc(CCC(=O)NCc3ccccc3)n2)c1 | inconclusive: 31.1% |  | 
48 | COCCNC(=S)N(Cc1cccnc1)Cc1ccc(OC)c(OC)c1 | inconclusive: 7.68% |  | 
49 | Cc1ccc(NC(=O)C2CCN(C(=O)NC3CCCCC3)CC2)cc1Cl |  | inconclusive: 29.1 µM [activator, single point] | 
